Laboratory results reported in article doi:10.1101/867192.
These are yes or no findings as the source states them, for the method shown. For part of these data: In cells and extracts the contact can be indirect. Some binding calls cover weakened binding; strength is not graded here.

T1: Rsph3b (mouse) (UniProt Q9DA80)
T1 sequence: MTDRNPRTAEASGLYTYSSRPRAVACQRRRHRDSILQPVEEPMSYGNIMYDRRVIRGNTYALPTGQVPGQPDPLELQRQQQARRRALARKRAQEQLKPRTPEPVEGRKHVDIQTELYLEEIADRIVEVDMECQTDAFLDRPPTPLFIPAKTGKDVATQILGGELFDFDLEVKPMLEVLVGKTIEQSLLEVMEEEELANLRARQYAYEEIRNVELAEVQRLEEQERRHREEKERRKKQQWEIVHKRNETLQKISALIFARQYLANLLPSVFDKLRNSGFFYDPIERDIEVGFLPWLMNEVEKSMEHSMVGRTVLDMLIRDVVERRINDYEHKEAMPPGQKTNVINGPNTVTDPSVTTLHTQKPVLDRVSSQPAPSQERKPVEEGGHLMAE

T2: Rsph6a (mouse) (UniProt Q8CDR2)
T2 sequence: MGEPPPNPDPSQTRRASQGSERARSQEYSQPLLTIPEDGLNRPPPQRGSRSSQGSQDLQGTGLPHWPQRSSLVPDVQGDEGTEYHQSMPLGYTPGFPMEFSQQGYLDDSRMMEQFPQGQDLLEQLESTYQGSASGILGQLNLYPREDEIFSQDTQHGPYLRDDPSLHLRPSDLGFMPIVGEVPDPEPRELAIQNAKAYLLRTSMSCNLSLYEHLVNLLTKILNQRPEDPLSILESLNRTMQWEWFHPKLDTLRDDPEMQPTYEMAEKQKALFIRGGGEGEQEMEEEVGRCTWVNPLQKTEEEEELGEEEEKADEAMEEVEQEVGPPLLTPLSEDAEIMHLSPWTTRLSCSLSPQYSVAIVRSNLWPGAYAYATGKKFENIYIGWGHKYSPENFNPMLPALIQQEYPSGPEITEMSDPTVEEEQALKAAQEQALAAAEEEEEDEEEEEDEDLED

T3: Rsph4a (mouse) (UniProt Q8BYM7)
T3 sequence: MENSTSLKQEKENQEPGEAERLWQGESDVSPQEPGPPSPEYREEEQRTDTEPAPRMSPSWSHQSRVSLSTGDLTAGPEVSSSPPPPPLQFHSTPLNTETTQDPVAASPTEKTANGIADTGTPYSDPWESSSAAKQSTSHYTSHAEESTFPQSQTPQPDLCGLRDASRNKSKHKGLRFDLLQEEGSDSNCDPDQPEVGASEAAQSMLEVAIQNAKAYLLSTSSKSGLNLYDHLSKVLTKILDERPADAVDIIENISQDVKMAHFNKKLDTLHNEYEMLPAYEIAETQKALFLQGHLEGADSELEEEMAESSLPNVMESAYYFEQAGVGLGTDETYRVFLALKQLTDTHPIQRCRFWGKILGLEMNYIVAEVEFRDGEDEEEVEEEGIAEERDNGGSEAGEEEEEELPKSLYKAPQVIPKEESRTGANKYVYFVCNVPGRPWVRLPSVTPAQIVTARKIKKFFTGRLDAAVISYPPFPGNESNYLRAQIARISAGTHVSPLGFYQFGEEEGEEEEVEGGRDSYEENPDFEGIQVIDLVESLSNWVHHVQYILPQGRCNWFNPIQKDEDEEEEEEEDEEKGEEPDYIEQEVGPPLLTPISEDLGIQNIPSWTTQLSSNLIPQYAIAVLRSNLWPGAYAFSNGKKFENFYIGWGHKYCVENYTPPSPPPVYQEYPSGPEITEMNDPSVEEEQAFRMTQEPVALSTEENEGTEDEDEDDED


Assays:
[1] = target: T1, Rsph3b (mouse); test: co-IP + other: glycerol gradient sedimentation
[2] = target: T1, Rsph3b (mouse); test: co-IP
[3] = target: T2, Rsph6a (mouse); test: co-IP
[4] = target: T3, Rsph4a (mouse); test: co-IP
[5] = target: T3, Rsph4a (mouse); test: cross-linking
[6] = target: T3, Rsph4a (mouse); test: cryo-EM structure
[7] = target: T1, Rsph3b (mouse); test: cross-linking
[8] = target: T1, Rsph3b (mouse); test: cryo-EM structure

binding [1] | binding [2] | binding [3] | binding [4] | binding [5] | binding [6] | binding [7] | binding [8] | Binder
binds weakly | binds |  |  |  |  |  |  | Rsph6a (protein, UniProt Q8CDR2-2 1-453) MGEPPPNPDPSQTRRASQGSERARSQEYSQPLLTIPEDGLNRPPPQRGSRSSQGSQDLQGTGLPHWPQRSSLVPDVQGDEGTEYHQSMPLGYTPGFPMEFSQQGYLDDSRMMEQFPQGQDLLEQLESTYQGSASGILGQLNLYPREDEIFSQDTQHGPYLRDDPSLHLRPSDLGFMPIVGEVPDPEPRELAIQNAKAYLLRTSMSCNLSLYEHLVNLLTKILNQRPEDPLSILESLNRTMQWEWFHPKLDTLRDDPEMQPTYEMAEKQKALFIRGGGEGEQEMEEEVGRCTWVNPLQKTEEEEELGEEEEKADEAMEEVEQEVGPPLLTPLSEDAEIMHLSPWTTRLSCSLSPQYSVAIVRSNLWPGAYAYATGKKFENIYIGWGHKYSPENFNPMLPALIQQEYPSGPEITEMSDPTVEEEQALKAAQEQALAAAEEEEEDEEEEEDEDLED
binds |  | binds | binds | binds | binds |  |  | Rsph1 (protein, UniProt Q8VIG3 1-301) MSDLGSEELEEEGENDLGEYEGERNEVGERHGHGKARLPNGDTYEGSYEFGKRHGQGTYKFKNGARYTGDYVKNKKHGQGTFIYPDGSRYEGEWADDQRHGQGVYYYVNNDTYTGEWFNHQRHGQGTYLYAETGSKYVGTWVHGQQEGAAELIHLNHRYQGKFMNKNPVGPGKYVFDIGCEQHGEYRLTDTERGEEEEEEETLVNIVPKWKALNITELALWTPTLSEEQPPPEGQGQEEPQGLTGVGDPSEDIQAEGFEGELEPRGADEDVDTFRQESQENSYDIDQGNLNFDEEPSDLQD
binds weakly |  |  |  |  |  |  |  | Rsph10b (protein, UniProt E9PYQ0 1-876) MVKEKKKADKKGDKSARSPSSISDNPEASKQDSNASKQEVAPSAVVPVVETPLKQAPKRDSVQMEQSEEETQYEEPILTKLIVESYEGEKVRGLYEGEGFAVFQGGNTYHGMFSEGLMHGQGTYIWADGLKYEGDFVKNIPMNHGVYTWPDGSTYEGEVTNGMRNGFGMFKCGTQPVSYIGHWCHGKRHGKGSIYYNQEGTSWYEGDWVYNIKKGWGIRCYKSGNIYEGQWENNMRHGEGRMRWLTTNEEYTGHWEKGIQNGFGTHTWFLKRIPNSQYPLRNEYIGEFVNGFRHGQGKFYYASGAMYEGEWASNKKQGRGRMTFKNGHVYEGLFSNDHIAQFFETEMDYSQSLDRWSDASQRSRQPRGSSVSAVREPETLRKLDGSESRSVLGTSIELDLTLLLDMYPEESQEEEKKQVEYAVLRNITELRRIYCFYSGLGCDHSLDNTFLMTKLHFWRFLKDCRFHHHNITLADMDRVLSVYNGIPIEEIHSPFRTILLRTFLNYLLQLAYYIHHKEFQNRSPSLFLCFTKLMSENIHPHACQVKGHLFSEQQRTLYSMNYIDKCWEIYTAYCRPNEAPPYELTMKMRYFLWMLKDFRMINKDLTATKFMTVIAEDNPFVYDGTDSNFELELVFLEFFEALLCFSLCCMFDQMTRSYLKVPYDDITTNRYGSTQTILNQSIHRSPSAITSHDSEVHFSSTKSSLDKIGALPDGKIRQSEPKLKKSLSEDKVSKMNFKTQGRGLVFMSPQGEKYEKPKDEQKEKLNIWVNNLYVFFVSVLFSAYKREEMLKEKVKENQLQEAELAQQRQIENEELEARLNILREEEARKQDFELDITVLKEPSEIPASQPLTPSPPKEDLASIQTSKASPGKKKKK
binds |  | binds | binds | binds | binds | binds |  | Rsph9 (protein, UniProt Q9D9V4 1-276) MDADSLLLSLELASGSGQGLSPDRRASLLTSLMLVKRDYRFARVLFWGRILGLVADYYIAQGLSEDQLAPRKTLYSLNCTEWSLLPPATEEMAMQISVVSGRFMGDPSHEYEHTELQKVNEGEKVFDEEVVVQIKEETRLVSIIDQIDKAVAIIPRGALFKTPFGVTHVNRTFEGLPLSEVRKLSSYFHFREAIDLKNKTLLEKSDLEPSLDFLDSLEYDIPRGSWSIQMERGNALVVLRSLLWPGLTFYHAPRTKNYGYIYVGTGEKNMDLPFML
binds | binds |  |  |  |  | binds | binds | Rsph4a (protein, UniProt Q8BYM7 1-716) MENSTSLKQEKENQEPGEAERLWQGESDVSPQEPGPPSPEYREEEQRTDTEPAPRMSPSWSHQSRVSLSTGDLTAGPEVSSSPPPPPLQFHSTPLNTETTQDPVAASPTEKTANGIADTGTPYSDPWESSSAAKQSTSHYTSHAEESTFPQSQTPQPDLCGLRDASRNKSKHKGLRFDLLQEEGSDSNCDPDQPEVGASEAAQSMLEVAIQNAKAYLLSTSSKSGLNLYDHLSKVLTKILDERPADAVDIIENISQDVKMAHFNKKLDTLHNEYEMLPAYEIAETQKALFLQGHLEGADSELEEEMAESSLPNVMESAYYFEQAGVGLGTDETYRVFLALKQLTDTHPIQRCRFWGKILGLEMNYIVAEVEFRDGEDEEEVEEEGIAEERDNGGSEAGEEEEEELPKSLYKAPQVIPKEESRTGANKYVYFVCNVPGRPWVRLPSVTPAQIVTARKIKKFFTGRLDAAVISYPPFPGNESNYLRAQIARISAGTHVSPLGFYQFGEEEGEEEEVEGGRDSYEENPDFEGIQVIDLVESLSNWVHHVQYILPQGRCNWFNPIQKDEDEEEEEEEDEEKGEEPDYIEQEVGPPLLTPISEDLGIQNIPSWTTQLSSNLIPQYAIAVLRSNLWPGAYAFSNGKKFENFYIGWGHKYCVENYTPPSPPPVYQEYPSGPEITEMNDPSVEEEQAFRMTQEPVALSTEENEGTEDEDEDDED
